Results as given in PMC8993103.
No constants are given. Whether binding was seen depends on the method and setting. In cells and extracts the contact can be indirect. A yes stands for co-enrichment or nearness to the bait. Other partners may have been found.

By UniProt entry, the sequences of proteins in these tests, tags left out. Residues count along the entry.
UniProt P05161, residues 1-157: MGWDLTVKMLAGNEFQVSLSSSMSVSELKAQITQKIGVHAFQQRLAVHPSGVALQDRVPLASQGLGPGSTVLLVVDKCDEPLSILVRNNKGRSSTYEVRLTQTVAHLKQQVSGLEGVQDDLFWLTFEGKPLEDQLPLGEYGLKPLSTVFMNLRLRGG
UniProt P63104: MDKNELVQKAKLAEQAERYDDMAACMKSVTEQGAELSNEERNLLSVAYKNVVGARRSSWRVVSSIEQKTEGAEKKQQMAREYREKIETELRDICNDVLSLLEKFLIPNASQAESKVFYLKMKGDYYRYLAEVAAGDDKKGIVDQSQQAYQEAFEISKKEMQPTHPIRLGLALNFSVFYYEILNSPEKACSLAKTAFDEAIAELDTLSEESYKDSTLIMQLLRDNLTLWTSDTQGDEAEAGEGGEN

Biological target: interferon-stimulated gene 15 (ISG15), HA-tagged (UniProt P05161)
Test: affinity purification with mass spectrometry; anti-HA immunoprecipitation (Protein A/G PLUS-Agarose) from RIPA lysates of 293T cells, 48 h after transfection with control, HA-ISG15, HA-14-3-3ζ or HA-ISG15 + HA-14-3-3ζ; SDS-PAGE, Coomassie; gel regions 20-37 kDa and 37-75 kDa excised, digested with trypsin, analysed by mass spectrometry

binding: binds
Substance: 14-3-3ζ protein, HA-tagged (from UniProt P63104 1-245)
